Measured values: doi:10.1101/2023.02.01.526449
Results are given in words; binding and its absence hold for the method and conditions named. Binding seen in cells or lysates may run through a third protein. Sequences can lack the tags named with a protein.

Target: T1, V5-TurboID fused to the lysosomal transmembrane protein TMEM192 (UniProt Q8IY95)
T1 sequence: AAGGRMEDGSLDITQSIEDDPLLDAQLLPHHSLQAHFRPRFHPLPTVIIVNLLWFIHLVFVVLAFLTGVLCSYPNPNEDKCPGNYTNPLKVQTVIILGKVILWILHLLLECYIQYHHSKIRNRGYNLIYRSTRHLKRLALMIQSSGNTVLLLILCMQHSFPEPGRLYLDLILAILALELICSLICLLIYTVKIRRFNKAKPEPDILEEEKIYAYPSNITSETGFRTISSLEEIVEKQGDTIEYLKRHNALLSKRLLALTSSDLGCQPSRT
Experiment: co-IP

B1: Pleckstrin Homology and RhoGEF Domain Containing G3 (protein, UniProt A1L390 1-1219)
chain: MPVSTSLHQDGSQERPVSLTSTTSSSGSSCDSRSAMEEPSSSEAPAKNGAGSLRSRHLPNSNNNSSSWLNVKGPLSPFNSRAAAGPAHHKLSYLGRVVREIVETERMYVQDLRSIVEDYLLKIIDTPGLLKPEQVSALFGNIENIYALNSQLLRDLDSCNSDPVAVASCFVERSQEFDIYTQYCNNYPNSVAALTECMRDKQQAKFFRDRQELLQHSLPLGSYLLKPVQRILKYHLLLQEIAKHFDEEEDGFEVVEDAIDTMTCVAWYINDMKRRHEHAVRLQEIQSLLINWKGPDLTTYGELVLEGTFRVHRVRNERTFFLFDKTLLITKKRGDHFVYKGNIPCSSLMLIESTRDSLCFTVTHYKHSKQQYSIQAKTVEEKRNWTHHIKRLILENHHATIPQKAKEAILEMDSYYPNRYRCSPERLKKAWSSQDEVSTNVRQGRRQSEPTKHLLRQLNEKARAAGMKGKGRRESESSRSSRRPSGRSPTSTEKRMSFESISSLPEVEPDPEAGSEQEVFSAVEGPSAEETPSDTESPEVLETQLDAHQGLLGMDPPGDMVDFVAAESTEDLKALSSEEEEEMGGAAQEPESLLPPSVLDQASVIAERFVSSFSRRSSVAQEDSKSSGFGSPRLVSRSSSVLSLEGSEKGLARHGSATDSLSCQLSPEVDISVGVATEDSPSVNGMEPPSPGCPVEPDRSSCKKKESALSTRDRLLLDKIKSYYENAEHHDAGFSVRRRESLSYIPKGLVRNSISRFNSLPRPDPEPVPPVGSKRQVGSRPTSWALFELPGPSQAVKGDPPPISDAEFRPSSEIVKIWEGMESSGGSPGKGPGQGQANGFDLHEPLFILEEHELGAITEESATASPESSSPTEGRSPAHLARELKELVKELSSSTQGELVAPLHPRIVQLSHVMDSHVSERVKNKVYQLARQYSLRIKSNKPVMARPPLQWEKVAPERDGKSPTVPCLQEEAGEPLGGKGKRKPVLSLFDYEQLMAQEHSPPKPSSAGEMSPQRFFFNPSAVSQRTTSPGGRPSARSPLSPTETFSWPDVRELCSKYASRDEARRAGGGRPRGPPVNRSHSVPENMVEPPLSGRVGRCRSLSTKRGRGGGEAAQSPGPLPQSKPDGGETLYVTADLTLEDNRRVIVMEKGPLPSPTAGLEESSGQGPSSPVALLGQVQDFQQSAECQPKEEGSRDPADPSQQGRVRNLREKFQALNSVG
B1 was tested, and the binding was “no binding”.
